For experiment [1], the target named is FLAG-tagged DPP9 (DPP9S), wild type (human) (UniProt Q86TI2). Description: co-IP.
Experiment [2] has as its target FLAG-tagged DPP9 (DPP9S), wild type (human), Q86TI2. Nature of the experiment: co-IP. Particulars: remark: other sources report otherwise.

Chains of the proteins cited; added tags and fusions are not shown.
UniProt Q86TI2: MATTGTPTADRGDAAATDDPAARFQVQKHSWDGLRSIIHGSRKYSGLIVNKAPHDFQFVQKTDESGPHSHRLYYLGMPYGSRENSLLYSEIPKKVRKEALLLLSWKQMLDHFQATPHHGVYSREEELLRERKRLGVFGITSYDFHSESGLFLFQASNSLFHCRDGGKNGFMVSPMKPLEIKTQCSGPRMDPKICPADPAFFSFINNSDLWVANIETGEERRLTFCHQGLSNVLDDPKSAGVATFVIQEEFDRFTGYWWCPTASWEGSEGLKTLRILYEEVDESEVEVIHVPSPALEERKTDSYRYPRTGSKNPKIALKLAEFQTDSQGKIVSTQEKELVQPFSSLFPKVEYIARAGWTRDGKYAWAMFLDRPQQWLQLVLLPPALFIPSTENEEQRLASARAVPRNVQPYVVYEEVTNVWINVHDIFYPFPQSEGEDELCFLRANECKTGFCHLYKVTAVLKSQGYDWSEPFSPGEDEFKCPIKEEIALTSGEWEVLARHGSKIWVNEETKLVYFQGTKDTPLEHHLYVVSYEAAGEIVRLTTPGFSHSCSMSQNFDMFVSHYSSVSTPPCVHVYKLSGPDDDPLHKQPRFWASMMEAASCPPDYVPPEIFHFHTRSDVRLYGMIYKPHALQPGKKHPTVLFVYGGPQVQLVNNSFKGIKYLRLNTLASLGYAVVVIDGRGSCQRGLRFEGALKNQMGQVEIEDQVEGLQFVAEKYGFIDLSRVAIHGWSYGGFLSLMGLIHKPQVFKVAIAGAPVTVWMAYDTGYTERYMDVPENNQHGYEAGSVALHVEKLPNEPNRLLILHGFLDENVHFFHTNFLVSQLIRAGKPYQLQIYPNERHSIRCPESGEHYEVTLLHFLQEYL

This is an account of results in publication doi:10.1101/2021.01.13.426575.

No constants are given. Whether binding was seen depends on the method and setting. In cells and extracts the contact can be indirect. Some entries that bind do so weakly or less than the wild type. Sequences can lack the tags named with a protein.

B1: V5-tagged UbN-S1213 NLRP1 (NLRP1-CT-V5) (domain or fragment, UniProt Q9C000 1213-1473)
chain: SPLGVLLKMIHNALRFIPVTSVVLLYHRVHPEEVTFHLYLIPSDCSIRKAIDDLEMKFQFVRIHKPPPLTPLYMGCRYTVSGSGSGMLEILPKELELCYRSPGEDQLFSEFYVGHLGSGIRLQVKDKKDETLVWEALVKPGDLMPATTLIPPARIAVPSPLDAPQLLHFVDQYREQLIARVTSVEVVLDKLHGQVLSQEQYERVLAENTRPSQMRKLFSLSQSWDRKCKDGLYQALKETHPHLIMELWEKGSKKGLLPLSS
Regarding B1, the binding result in experiment [1] was “binds”.

B2: MYC-tagged full-length NLRP1 S1213A, Q9C000 1-1473 (protein)
chain: MAGGAWGRLACYLEFLKKEELKEFQLLLANKAHSRSSSGETPAQPEKTSGMEVASYLVAQYGEQRAWDLALHTWEQMGLRSLCAQAQEGAGHSPSFPYSPSEPHLGSPSQPTSTAVLMPWIHELPAGCTQGSERRVLRQLPDTSGRRWREISASLLYQALPSSPDHESPSQESPNAPTSTAVLGSWGSPPQPSLAPREQEAPGTQWPLDETSGIYYTEIREREREKSEKGRPPWAAVVGTPPQAHTSLQPHHHPWEPSVRESLCSTWPWKNEDFNQKFTQLLLLQRPHPRSQDPLVKRSWPDYVEENRGHLIEIRDLFGPGLDTQEPRIVILQGAAGIGKSTLARQVKEAWGRGQLYGDRFQHVFYFSCRELAQSKVVSLAELIGKDGTATPAPIRQILSRPERLLFILDGVDEPGWVLQEPSSELCLHWSQPQPADALLGSLLGKTILPEASFLITARTTALQNLIPSLEQARWVEVLGFSESSRKEYFYRYFTDERQAIRAFRLVKSNKELWALCLVPWVSWLACTCLMQQMKRKEKLTLTSKTTTTLCLHYLAQALQAQPLGPQLRDLCSLAAEGIWQKKTLFSPDDLRKHGLDGAIISTFLKMGILQEHPIPLSYSFIHLCFQEFFAAMSYVLEDEKGRGKHSNCIIDLEKTLEAYGIHGLFGASTTRFLLGLLSDEGEREMENIFHCRLSQGRNLMQWVPSLQLLLQPHSLESLHCLYETRNKTFLTQVMAHFEEMGMCVETDMELLVCTFCIKFSRHVKKLQLIEGRQHRSTWSPTMVVLFRWVPVTDAYWQILFSVLKVTRNLKELDLSGNSLSHSAVKSLCKTLRRPRCLLETLRLAGCGLTAEDCKDLAFGLRANQTLTELDLSFNVLTDAGAKHLCQRLRQPSCKLQRLQLVSCGLTSDCCQDLASVLSASPSLKELDLQQNNLDDVGVRLLCEGLRHPACKLIRLGLDQTTLSDEMRQELRALEQEKPQLLIFSRRKPSVMTPTEGLDTGEMSNSTSSLKRQRLGSERAASHVAQANLKLLDVSKIFPIAEIAEESSPEVVPVELLCVPSPASQGDLHTKPLGTDDDFWGPTGPVATEVVDKEKNLYRVHFPVAGSYRWPNTGLCFVMREAVTVEIEFCVWDQFLGEINPQHSWMVAGPLLDIKAEPGAVEAVHLPHFVALQGGHVDTSLFQMAHFKEEGMLLEKPARVELHHIVLENPSFAPLGVLLKMIHNALRFIPVTSVVLLYHRVHPEEVTFHLYLIPSDCSIRKAIDDLEMKFQFVRIHKPPPLTPLYMGCRYTVSGSGSGMLEILPKELELCYRSPGEDQLFSEFYVGHLGSGIRLQVKDKKDETLVWEALVKPGDLMPATTLIPPARIAVPSPLDAPQLLHFVDQYREQLIARVTSVEVVLDKLHGQVLSQEQYERVLAENTRPSQMRKLFSLSQSWDRKCKDGLYQALKETHPHLIMELWEKGSKKGLLPLSS
With B2, the binding entry in experiment [2] is “binds”.
